Results are given in words; binding and its absence hold for the method and conditions named. Some binding calls cover weakened binding; strength is not graded here. Blank lines part the entries; values can stand above or below the binder they belong to.
Key:
[1] = molecular target: Fc-tagged human NKG2D (human) (UniProt P26718); test: ELISA; blocking assay: plates coated with Fc-tagged NKG2D; biotinylated ULBP5 (1.55 nmol/L) or ULBP6-02 (0.15 nmol/L) at its EC80 precomplexed with 23ME-01473 and transferred to the plates; IC50 from dose-response fit; both purified
[2] = molecular target: Fc-tagged human NKG2D (human) (UniProt P26718); test: SPR; Biacore 8K or 8K+, 37°C; Fc-tagged human NKG2D (0.5 μg/mL) captured on Series S Sensor Protein A chip to about 25 RU; threefold serial dilutions of NKG2DLs injected at 30 μL/minute in HBS-P (0.01 mol/L HEPES pH 7.4, 0.15 mol/L NaCl, 0.005% P20); KD from steady-state fit; both purified

Sequences of proteins named here, by UniProt entry; tags and fusion partners are left off. Residues count along the entry.
UniProt P26718, residues 73-216: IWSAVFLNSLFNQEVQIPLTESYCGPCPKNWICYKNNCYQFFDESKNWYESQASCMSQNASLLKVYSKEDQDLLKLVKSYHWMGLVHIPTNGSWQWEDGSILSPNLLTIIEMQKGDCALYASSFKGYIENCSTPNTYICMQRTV

binding [1]: binds
B1: biotinylated ULBP5 (ligand, UniProt Q6H3X3 26-218)
chain: GLADPHSLCYDITVIPKFRPGPRWCAVQGQVDEKTFLHYDCGSKTVTPVSPLGKKLNVTTAWKAQNPVLREVVDILTEQLLDIQLENYIPKEPLTLQARMSCEQKAEGHGSGSWQLSFDGQIFLLFDSENRMWTTVHPGARKMKEKWENDKDMTMSFHYISMGDCTGWLEDFLMGMDSTLEPSAGAPPTMSSG
modifications: biotin

binding [1]: binds
B2: biotinylated ULBP6-02 (ligand, UniProt Q5VY80 26-218)
chain: RRDDPHSLCYDITVIPKFRPGPRWCAVQGQVDEKTFLHYDCGNKTVTPVSPLGKKLNVTMAWKAQNPVLREVVDILTEQLLDIQLENYTPKEPLTLQARMSCEQKAEGHSSGSWQFSIDGQTFLLFDSEKRMWTTVHPGARKMKEKWENDKDVAMSFHYISMGDCIGWLEDFLMGMDSTLEPSAGAPLAMSSG
modifications: biotin

binding [2]: binds
B3: human MICA (MHC class I polypeptide-related sequence A), soluble recombinant (ligand, UniProt Q29983 24-307)
chain: EPHSLRYNLTVLSWDGSVQSGFLTEVHLDGQPFLRCDRQKCRAKPQGQWAEDVLGNKTWDRETRDLTGNGKDLRMTLAHIKDQKEGLHSLQEIRVCEIHEDNSTRSSQHFYYDGELFLSQNLETKEWTMPQSSRAQTLAMNVRNFLKEDAMKTKTHYHAMHADCLQELRRYLKSGVVLRRTVPPMVNVTRSEASEGNITVTCRASGFYPWNITLSWRQDGVSLSHDTQQWGDVLPDGNGTYQTWVATRICQGEEQRFTCYMEHSGNHSTHPVPSGKVLVLQSHW

From PMC11927390
